# According to PMC8273887 (Journal of Medicinal Chemistry, 2021):
# Chains of the proteins cited; added tags and fusions are not shown. Residues count along the entry.
# UniProt Q7L985, residues 28-606: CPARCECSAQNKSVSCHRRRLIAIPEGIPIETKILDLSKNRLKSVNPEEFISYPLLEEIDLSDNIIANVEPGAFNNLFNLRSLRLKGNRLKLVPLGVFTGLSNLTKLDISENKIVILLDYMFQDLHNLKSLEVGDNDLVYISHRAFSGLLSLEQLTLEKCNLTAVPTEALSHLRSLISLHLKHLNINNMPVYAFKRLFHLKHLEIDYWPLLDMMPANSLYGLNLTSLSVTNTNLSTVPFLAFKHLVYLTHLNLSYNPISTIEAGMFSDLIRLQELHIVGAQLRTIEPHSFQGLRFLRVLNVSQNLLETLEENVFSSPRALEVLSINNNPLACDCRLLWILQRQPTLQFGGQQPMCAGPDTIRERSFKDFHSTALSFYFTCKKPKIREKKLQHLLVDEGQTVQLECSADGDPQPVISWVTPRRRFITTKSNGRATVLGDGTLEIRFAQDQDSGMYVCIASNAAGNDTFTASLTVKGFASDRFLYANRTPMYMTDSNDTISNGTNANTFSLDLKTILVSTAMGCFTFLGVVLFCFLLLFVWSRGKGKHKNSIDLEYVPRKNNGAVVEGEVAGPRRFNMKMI
# Results are given in words; binding and its absence hold for the method and conditions named. Binding seen in cells or lysates may run through a third protein. Some binding calls cover weakened binding; strength is not graded here.
# Target: leucine-rich repeat receptor and nogo-interacting protein 2 (LINGO2), fused with Rluc or with YFP (UniProt Q7L985)
# Assay: FRET or BRET; HEK-293 cells co-expressing LINGO2-Rluc (donor) and LINGO2-YFP (acceptor); coelenterazine 5 μM; emission ratio 530/480 nm minus donor-only background; basal condition and after 20 min with TFF3(C^57Acm) or TFF3 homodimer
substance,measurement,value
"leucine-rich repeat receptor and nogo-interacting protein 2 (LINGO2), fused with Rluc or with YFP (from UniProt Q7L985 28-606)",binding,binds
